Laboratory results published in PubChem BioAssay AID250 (DTP/NCI, 2004).
The list is a part of this screen's results and no random one: it gathers tests that were run many times, whatever their T/C, doses with no T/C, and many T/C values between a quarter and a half above the control. Other doses and runs of a compound stand elsewhere. T/C gives the treated animals as a percentage of the vehicle group. Some entries give survivors of the animals treated and no T/C: the source files T/C as zero there, which appears to mark a toxic dose or a test without result, not a measured value. For some of these results: Counts of survivors are from the toxicity check (mostly the fifth day) where no day follows; animals may have died later. Schedules are NCI's codes, taken here to give the interval after Q, in days (D) or hours (H), and the number of doses after X. Some entries were tested several times; the results are listed from low to high. For survival time, this PubChem deposit counts one and a half times the control or more as active, and values a quarter to a half above the control carry no call in these data; other NCI protocols may use other cut-offs. Some T/C values carry the count of animals alive at the toxicity check (mostly the fifth day); without a count, all were alive then. Counts like (3×) stand for listed records that agree.

Columns and labels:
[1] = system: BDF1 mice, L1210 leukemia sc; experiment: NCI In Vivo Anticancer Drug Screen. Data for tumor model L1210 Leukemia (subcutaneous) in B6D2F1 (BDF1) mice; conditions: T/C endpoint: median survival time, vehicle: water, higher T/C = longer survival
Procedure, shortened: (§1)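 Read-out: T/C ratio, i.e. survival or tumor size in treated mice over that in vehicle-treated controls, from mice bearing transplantable tumors.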

[2] = system: BDF1 mice, L1210 leukemia sc, survival T/C; experiment: as above; conditions: T/C endpoint: median survival time, vehicle: water, higher T/C = longer survival
Procedure, shortened: as §1

[3] = dose: 300.0 mg/kg/injection, schedule: Q01DX001 (sc), evaluated on day 7
[4] = dose: 300.0 mg/kg/injection, schedule: Q01DX001 (sc), evaluated on day 40
[5] = dose: 300.0 mg/kg/injection, schedule: Q04DX003 (sc), evaluated on day 7
[6] = dose: 500.0 mg/kg/injection, schedule: Q04DX003 (sc), evaluated on day 7
[7] = dose: 500.0 mg/kg/injection, schedule: Q04DX003 (sc), evaluated on day 40

Compound: O=P1(NCCCl)OCCCN1CCCl (centres undefined)
- T/C ([1]; dose: 23.0 mg/kg/injection, schedule: Q01DX009 (sc)): 136 % of control
- T/C ([1]; dose: 39.0 mg/kg/injection, schedule: Q04DX003 (sc)): 126 % of control
- T/C ([1]; dose: 65.0 mg/kg/injection, schedule: Q08DX002 (sc)): 131 % of control
- T/C ([1]; dose: 65.0 mg/kg/injection, schedule: Q09DX003 (sc), evaluated on day 7): 144 % of control
- T/C ([1]; dose: 65.0 mg/kg/injection, schedule: Q09DX003 (sc), evaluated on day 50): 144 % of control
- T/C ([1]; dose: 108.0 mg/kg/injection, schedule: Q01DX001 (sc)): 142 % of control
- T/C ([1]; dose: 180.0 mg/kg/injection, schedule: Q01DX009 (sc)): 136 % of control
- T/C [1, 3]: 140 % of control
- T/C [1, 4]: 138 % of control
- T/C [1, 5]: 126 % of control
- T/C [1, 6]: 128 % of control
- T/C [1, 7]: 126 and 127 % of control
- T/C ([1]; dose: 500.0 mg/kg/injection, schedule: Q07DX003 (ip), evaluated on day 7): 143 % of control
- T/C ([1]; dose: 500.0 mg/kg/injection, schedule: Q07DX003 (ip), evaluated on day 60): 131 % of control [7 of 8 alive]
- T/C ([2]; dose: 65.0 mg/kg/injection, schedule: Q04DX003 (sc), evaluated on day 7): 152, 186, 214 % of control
- T/C ([2]; dose: 65.0 mg/kg/injection, schedule: Q04DX003 (sc), evaluated on day 40): 155, 157, 177 % of control
- T/C ([2]; dose: 65.0 mg/kg/injection, schedule: Q04DX003 (sc), evaluated on day 50): 211 % of control
- T/C ([2]; dose: 108.0 mg/kg/injection, schedule: Q04DX003 (sc), evaluated on day 7): 201, 236, 248 % of control
- T/C ([2]; dose: 108.0 mg/kg/injection, schedule: Q04DX003 (sc), evaluated on day 40): 200 (2×) and 244 % of control
- T/C ([2]; dose: 108.0 mg/kg/injection, schedule: Q04DX003 (sc), evaluated on day 50): 233 % of control
- T/C ([2]; dose: 180.0 mg/kg/injection, schedule: Q01DX001 (sc), evaluated on day 7): 120 % of control
- T/C ([2]; dose: 180.0 mg/kg/injection, schedule: Q01DX001 (sc), evaluated on day 33): 188 % of control
- T/C ([2]; dose: 180.0 mg/kg/injection, schedule: Q01DX001 (sc), evaluated on day 40): 116 and 163 % of control
- T/C ([2]; dose: 180.0 mg/kg/injection, schedule: Q04DX003 (sc), evaluated on day 7): 222, 234, 278 % of control
- T/C ([2]; dose: 180.0 mg/kg/injection, schedule: Q04DX003 (sc), evaluated on day 40): 233, 268, 277 % of control
- T/C ([2]; dose: 180.0 mg/kg/injection, schedule: Q04DX003 (sc), evaluated on day 50): 200 % of control
- T/C [2, 3]: 215 % of control
- T/C ([2]; dose: 300.0 mg/kg/injection, schedule: Q01DX001 (sc), evaluated on day 33): 222 % of control
- T/C [2, 4]: 200 % of control [7 of 8 alive]
- T/C [2, 5]: 201 and 296 % of control
- T/C ([2]; dose: 300.0 mg/kg/injection, schedule: Q04DX003 (sc), evaluated on day 40): 200, 288, 310 % of control
- T/C ([2]; dose: 300.0 mg/kg/injection, schedule: Q04DX003 (sc), evaluated on day 50): 122 % of control
- survivor count ([2]; dose: 500.0 mg/kg/injection, schedule: Q01DX001 (ip)): 3 of 8
- T/C ([2]; dose: 500.0 mg/kg/injection, schedule: Q01DX001 (sc), evaluated on day 7): 164, 226, 265 % of control
- T/C ([2]; dose: 500.0 mg/kg/injection, schedule: Q01DX001 (sc), evaluated on day 33): 277 % of control
- T/C ([2]; dose: 500.0 mg/kg/injection, schedule: Q01DX001 (sc), evaluated on day 40): 166, 221, 230 % of control [6 of 8 alive]
- T/C ([2]; dose: 500.0 mg/kg/injection, schedule: Q01DX001 (sc), evaluated on day 55): 611 % of control [7 of 8 alive]
- T/C [2, 6]: 97 and 164 % of control
- T/C [2, 7]: 161 % of control
- survivor count ([2]; dose: 500.0 mg/kg/injection, schedule: Q04DX003 (sc)): 4 of 8
- survivor count ([2]; dose: 600.0 mg/kg/injection, schedule: Q01DX001 (sc)): 3 of 8
- survivor count ([2]; dose: 625.0 mg/kg/injection, schedule: Q01DX001 (sc)): 5 of 8
- survivor count ([2]; dose: 833.0 mg/kg/injection, schedule: Q01DX001 (ip)): 1 of 8
- T/C ([2]; dose: 833.0 mg/kg/injection, schedule: Q01DX001 (sc), evaluated on day 7): 95 and 179 % of control
- T/C ([2]; dose: 833.0 mg/kg/injection, schedule: Q01DX001 (sc), evaluated on day 40): 110 [6 of 8 alive] and 177 % of control [7 of 8 alive]
- survivor count ([2]; dose: 833.0 mg/kg/injection, schedule: Q01DX001 (sc)): 4 of 8
- survivor count ([2]; dose: 833.0 mg/kg/injection, schedule: Q08DX002 (sc)): 5 of 8
- survivor count ([2]; dose: 1000.0 mg/kg/injection, schedule: Q01DX001 (ip)): 0 of 8
- survivor count ([2]; dose: 1000.0 mg/kg/injection, schedule: Q01DX001 (sc)): 0 of 8 and 1 of 8
